Assay results published in PMC12774626.

Protein sequences, listed by entry. Tags and fused reporters are not part of them. Lines headed by an entry give the natural chain unless they say otherwise; changes in a name come on top.
UniProt B1WBN7: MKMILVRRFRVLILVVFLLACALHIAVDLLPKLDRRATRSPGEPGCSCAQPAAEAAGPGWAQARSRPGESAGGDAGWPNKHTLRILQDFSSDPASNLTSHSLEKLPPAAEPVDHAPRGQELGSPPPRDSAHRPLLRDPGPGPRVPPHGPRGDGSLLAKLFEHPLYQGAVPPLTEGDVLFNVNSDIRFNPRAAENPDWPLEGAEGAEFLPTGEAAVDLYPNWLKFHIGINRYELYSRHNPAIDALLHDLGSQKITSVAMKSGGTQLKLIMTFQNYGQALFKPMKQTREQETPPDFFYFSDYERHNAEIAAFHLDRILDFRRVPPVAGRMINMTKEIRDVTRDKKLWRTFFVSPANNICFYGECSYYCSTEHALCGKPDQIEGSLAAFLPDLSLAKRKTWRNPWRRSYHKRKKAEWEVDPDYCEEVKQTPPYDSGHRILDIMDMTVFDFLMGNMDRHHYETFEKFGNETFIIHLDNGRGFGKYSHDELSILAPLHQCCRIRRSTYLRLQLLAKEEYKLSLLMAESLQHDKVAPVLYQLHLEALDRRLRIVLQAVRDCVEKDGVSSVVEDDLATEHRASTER
UniProt O08629: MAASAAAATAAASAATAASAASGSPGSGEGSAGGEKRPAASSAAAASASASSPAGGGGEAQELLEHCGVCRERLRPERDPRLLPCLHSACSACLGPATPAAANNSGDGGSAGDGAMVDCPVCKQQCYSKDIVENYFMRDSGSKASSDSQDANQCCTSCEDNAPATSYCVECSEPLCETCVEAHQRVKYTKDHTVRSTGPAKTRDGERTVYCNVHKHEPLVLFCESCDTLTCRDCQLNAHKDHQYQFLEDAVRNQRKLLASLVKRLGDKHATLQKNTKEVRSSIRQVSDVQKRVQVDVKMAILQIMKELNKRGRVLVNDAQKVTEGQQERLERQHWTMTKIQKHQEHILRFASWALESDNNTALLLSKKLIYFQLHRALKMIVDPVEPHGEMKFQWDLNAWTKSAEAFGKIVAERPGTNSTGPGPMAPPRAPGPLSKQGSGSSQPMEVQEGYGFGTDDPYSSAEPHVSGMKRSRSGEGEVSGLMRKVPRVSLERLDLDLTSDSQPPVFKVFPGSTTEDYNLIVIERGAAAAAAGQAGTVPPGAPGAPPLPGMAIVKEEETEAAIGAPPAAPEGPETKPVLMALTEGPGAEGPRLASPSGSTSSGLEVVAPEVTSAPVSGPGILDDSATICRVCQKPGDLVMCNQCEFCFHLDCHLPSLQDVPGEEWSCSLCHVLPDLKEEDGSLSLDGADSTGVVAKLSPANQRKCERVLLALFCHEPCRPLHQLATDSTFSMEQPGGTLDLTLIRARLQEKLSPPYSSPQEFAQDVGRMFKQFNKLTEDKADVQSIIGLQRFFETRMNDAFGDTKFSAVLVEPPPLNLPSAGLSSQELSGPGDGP
UniProt O88453: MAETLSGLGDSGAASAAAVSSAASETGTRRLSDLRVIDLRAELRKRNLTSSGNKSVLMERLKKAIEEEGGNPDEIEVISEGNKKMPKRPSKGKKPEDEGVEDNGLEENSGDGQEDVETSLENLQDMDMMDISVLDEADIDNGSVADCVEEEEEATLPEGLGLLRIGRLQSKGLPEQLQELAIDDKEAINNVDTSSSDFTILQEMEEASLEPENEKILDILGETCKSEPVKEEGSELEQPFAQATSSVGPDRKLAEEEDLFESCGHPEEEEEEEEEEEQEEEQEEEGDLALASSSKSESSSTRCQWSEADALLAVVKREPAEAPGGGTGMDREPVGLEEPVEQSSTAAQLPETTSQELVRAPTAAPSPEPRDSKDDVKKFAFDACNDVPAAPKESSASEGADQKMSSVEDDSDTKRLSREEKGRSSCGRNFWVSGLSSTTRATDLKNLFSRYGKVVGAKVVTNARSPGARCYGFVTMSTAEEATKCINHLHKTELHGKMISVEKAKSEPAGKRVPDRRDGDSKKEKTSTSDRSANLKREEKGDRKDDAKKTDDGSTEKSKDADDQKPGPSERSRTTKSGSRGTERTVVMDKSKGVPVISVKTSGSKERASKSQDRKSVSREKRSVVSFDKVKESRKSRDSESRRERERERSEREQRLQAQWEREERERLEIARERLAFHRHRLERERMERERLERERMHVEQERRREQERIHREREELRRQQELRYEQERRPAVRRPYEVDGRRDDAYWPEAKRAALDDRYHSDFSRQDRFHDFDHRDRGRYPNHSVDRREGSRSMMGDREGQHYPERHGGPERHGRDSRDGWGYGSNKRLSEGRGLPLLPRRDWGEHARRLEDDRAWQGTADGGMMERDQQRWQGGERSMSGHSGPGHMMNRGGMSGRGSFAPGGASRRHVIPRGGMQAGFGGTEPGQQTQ

Tests used:
[1] = target: FAM20C, endogenous in rat hippocampal tissue (rat (endogenous in hippocampal tissue)) (UniProt B1WBN7); test: affinity purification with mass spectrometry; immunoprecipitation with an anti-FAM20C antibody from hippocampal tissue of healthy 7-day-old rats; gel strip mass spectrometry; hits filtered for the Ser-x-Glu/pSer motif
[2] = target: FAM20C, endogenous in rat hippocampal tissue (rat (endogenous in hippocampal tissue)) (UniProt B1WBN7); test: as above; remark: listed apart in the source

Molecule | binding [1] | binding [2]
KAP1, endogenous in rat hippocampal tissue (from UniProt O08629 1-835) | binds | 
SAFB, endogenous in rat hippocampal tissue (from UniProt O88453 1-931) | binds | 

Second part, the molecule after the results:

binding [1] | binding [2] | Molecule
 | binds | ADAR, endogenous in rat hippocampal tissue (enzyme, UniProt P55266 1-1175) MSQGFRGPTGVFPHQTQPCLDPSYEHSKWRYLQPRGSESYLRSFQLQQIEFLKGRLPEAPLIGAQTQSLPPFLPGHWPRFPGPPAQGKQPEIWGFPRSVTLRNQGFHIGPPLPPPHSRGPPWRGAEGLCSHFQELSISQNPEQKVLNRLEELGEGKATTAYALARELRTPKKDINRILYSLERKGKLHRGVGKPPLWSLVPLSQACTQPPRAVNSDKEVPRGEPDLDSEDGDPASDLEGPSELLDMAEIKEKICDYLFNVSKSSALNLAKNIGLAKARDVNAVLIDLERQGDVYREGATPPIWYLTDKKRERLQMKRSTHSGPAATPAAVSEATQSTSFPTCHPPQSGGSSSMATSKRVENGQEPVTKYESRHEARPGPVRLRPHAYHNGPSRAGYVASENGPWATDDIPDNLNSIHTAPGEFRAIMEMPSFYSPTLPRCSPYKKLTECQLKNPVSGLLEYAQFTSQTCDFNLIEQSGPSHEPRFKFQVVINGREFPPAEAGSKKVAKQDAAVKAMAILLREAKAKDSGQPEELSNCPMEEDPEKPAESQPPSSSATSLFSGKSPVTTLLECMHKLGNSCEFRLLSKEGPAHDPKFQYCVAVGAQTFPSVSAPSKKVAKQMAAEEAMKALQEEAANSADDQSGGANTDSLDESVAPNKIRRIGELVRYLNTNPVGGLLEYARSHGFAAEFKLIDQSGPPHEPKFVYQAKVGGRWFPAVCAHSKKQGKQDAADAALRVLIGESEKAEQLGFAEVTPVTGASLRRTMLLLSRSPDAHPKTLPLTGSTFHDQIAMLSHRCFNALTNSFQPSLLGRKILAAIIMKRDPEDMGVVVSLGTGNRCVKGDSLSLKGETVNDCHAEIISRRGFIRFLYSELMKYNHHTAKNSIFELARGGEKLQIKKTVSFHLYISTAPCGDGAHFDKSCSDRAVESTESRHYPVFENPKQGKLRTKVENGEGTIPVESSDIVPTWDGIRLGERLRTMSCSDKILRWNVLGLQGALLTHFLQPVYLKSVTLGYLFSQGHLTRAICCRVTRDGNAFEDGLRYPFIVNHPKVGRVSVYDSKRQSGKTKETSVNWCLADGYDLEILDGTRGTVDGPGKELSRVSKKNIFLQFKKLCSFRARRDLLQLSYGEAKKAARDYDLAKNYFKKSLRDMGYGNWISKPQEEKNFYLCPVPND
 | binds | DAGLA, endogenous in rat hippocampal tissue (enzyme, UniProt Q5YLM1 1-1044) MPGIVVFRRRWSVGSDDLVLPAIFLFLLHTTWFVILSVVLFGLVYNPHEACSLNLVDHGRGYLGILLSCMIAEMAIIWLSMRGGILYTEPRDSMQYVLYVRLAILVIEFIYAIVGIVWLTQYYTSCNDLTAKNVTLGMVVCNWVVILSVCITVLCVFDPTGRTFVKLRATKRRQRNLRTYNLRHRLEEGQATSWSRRLKVFLCCTRTKDSQSDAYSEIAYLFAEFFRDLDIVPSDIIAGLVLLRQRQRAKRNAVLDEANNDILAFLSGMPVTRNTKYLDLKNSHEMLRYKEVCYYMLFALAAYGWPMYLMRKPTCGLCQLARSCSCCLCPARPRFAPGVTIEEDNCCGCNAIAIRRHFLDENMTAVDIVYTSCHDAVYETPFYVAVDHDKKKVVISIRGTLSPKDALTDLTGDAERLPVEGHRGTWLGHKGMVLSAEYIKKKLEQEMVLSQAFGRDLGRGTKHYGLIVVGHSLGAGTAAILSFLLRPQYPTLKCFAYSPPGGLLSEDAMEYSKEFVTAVVLGKDLVPRIGLSQLEGFRRQLLDVLQRSTKPKWRIIVGATKCIPKSELPEDQVEVTALASTRLWTHPSDLTIALSASTPLYPPGRIIHVVHNHPAEQCCCCEQEEPTYFAIWGDNKAFNEVIISPAMLHEHLPYVVMEGLNKVLENYNKGKTALLSAAKVMVSPTEVDLTPELIFQQQPLPTGPPLPTGLALELPATEHRNSSVRSKSQSEMSLEGFSEGRLLSPVAAASAARQDPVELLLLSTQERLAAELQSRRAPLATMESLSDTESLYSFDSRRSSGFRSIRGSPSLHAVLERDEGHLFYIDPAIPEENPSLSSRTELLAADSLSKHSQDTQPLEAALGSGGVTPERPPSAANDEEEAAGGSEGGGVAPRGELALHNGRLGDSPSPQVLEFAEFIDSLFNLDSKSSSFQDLYCMMVPESPTSDYTEGPKSPSQQEILLRAQFEPNLVPKPPRLFAGSAEPSSGISLSPSFPLSSSGELMDLTPTGLSSQECLATDKIRTSTPTGHGASPTKQDDLVISAR

Like-named read-outs stand apart in the source and are kept apart here. Results are given in words; binding and its absence hold for the method and conditions named. Binding seen in cells or lysates may run through a third protein. These calls come from enrichment with a bait or labelling near it, and not all partners need be listed.
